The record followed here is PMC8783446.

Sequences of proteins named here, by UniProt entry; tags and fusion partners are left off.
UniProt Q9JJG0: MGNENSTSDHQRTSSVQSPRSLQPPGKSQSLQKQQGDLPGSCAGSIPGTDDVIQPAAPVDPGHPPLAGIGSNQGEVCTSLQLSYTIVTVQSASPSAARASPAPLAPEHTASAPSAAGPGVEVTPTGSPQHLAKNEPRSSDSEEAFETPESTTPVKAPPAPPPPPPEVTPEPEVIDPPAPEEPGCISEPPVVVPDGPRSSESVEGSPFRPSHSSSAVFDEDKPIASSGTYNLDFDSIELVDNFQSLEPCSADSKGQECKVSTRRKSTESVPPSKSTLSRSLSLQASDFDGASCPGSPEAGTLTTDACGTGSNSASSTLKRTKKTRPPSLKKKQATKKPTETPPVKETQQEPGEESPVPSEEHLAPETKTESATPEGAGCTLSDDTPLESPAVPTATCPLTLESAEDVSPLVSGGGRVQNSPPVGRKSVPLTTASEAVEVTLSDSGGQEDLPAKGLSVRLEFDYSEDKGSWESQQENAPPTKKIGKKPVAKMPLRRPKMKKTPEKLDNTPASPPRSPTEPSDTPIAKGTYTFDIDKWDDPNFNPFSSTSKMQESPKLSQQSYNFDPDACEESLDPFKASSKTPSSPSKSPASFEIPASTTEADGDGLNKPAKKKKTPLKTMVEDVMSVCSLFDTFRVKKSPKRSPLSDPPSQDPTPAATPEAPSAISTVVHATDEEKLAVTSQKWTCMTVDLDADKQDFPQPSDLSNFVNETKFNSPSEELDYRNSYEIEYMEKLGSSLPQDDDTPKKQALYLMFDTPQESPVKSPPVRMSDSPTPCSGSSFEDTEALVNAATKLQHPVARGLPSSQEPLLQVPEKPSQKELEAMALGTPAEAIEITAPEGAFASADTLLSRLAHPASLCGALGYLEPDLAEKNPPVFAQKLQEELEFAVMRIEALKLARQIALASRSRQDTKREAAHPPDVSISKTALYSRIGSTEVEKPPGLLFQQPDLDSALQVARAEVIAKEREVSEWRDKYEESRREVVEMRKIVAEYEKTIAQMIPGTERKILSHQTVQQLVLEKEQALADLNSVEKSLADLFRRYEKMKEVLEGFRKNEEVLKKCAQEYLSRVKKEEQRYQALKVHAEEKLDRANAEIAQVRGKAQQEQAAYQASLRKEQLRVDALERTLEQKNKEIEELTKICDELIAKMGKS
UniProt P10637: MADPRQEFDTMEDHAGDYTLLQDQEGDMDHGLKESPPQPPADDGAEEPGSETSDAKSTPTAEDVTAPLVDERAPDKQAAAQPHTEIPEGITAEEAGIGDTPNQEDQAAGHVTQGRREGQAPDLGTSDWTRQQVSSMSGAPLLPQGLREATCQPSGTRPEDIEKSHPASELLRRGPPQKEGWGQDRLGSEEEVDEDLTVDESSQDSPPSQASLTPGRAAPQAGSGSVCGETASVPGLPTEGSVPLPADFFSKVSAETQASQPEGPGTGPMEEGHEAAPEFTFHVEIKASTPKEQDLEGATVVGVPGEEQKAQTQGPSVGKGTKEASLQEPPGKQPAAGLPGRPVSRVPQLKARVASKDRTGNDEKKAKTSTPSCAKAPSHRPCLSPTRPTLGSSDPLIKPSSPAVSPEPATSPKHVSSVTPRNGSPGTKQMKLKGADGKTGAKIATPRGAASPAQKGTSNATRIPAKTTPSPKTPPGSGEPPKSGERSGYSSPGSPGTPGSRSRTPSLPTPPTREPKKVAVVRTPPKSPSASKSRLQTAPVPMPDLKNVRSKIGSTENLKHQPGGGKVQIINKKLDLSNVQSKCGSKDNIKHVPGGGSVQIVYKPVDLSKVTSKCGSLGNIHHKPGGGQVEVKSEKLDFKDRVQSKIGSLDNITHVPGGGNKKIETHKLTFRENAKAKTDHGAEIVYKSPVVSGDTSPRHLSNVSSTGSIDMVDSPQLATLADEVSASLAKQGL
UniProt P09405: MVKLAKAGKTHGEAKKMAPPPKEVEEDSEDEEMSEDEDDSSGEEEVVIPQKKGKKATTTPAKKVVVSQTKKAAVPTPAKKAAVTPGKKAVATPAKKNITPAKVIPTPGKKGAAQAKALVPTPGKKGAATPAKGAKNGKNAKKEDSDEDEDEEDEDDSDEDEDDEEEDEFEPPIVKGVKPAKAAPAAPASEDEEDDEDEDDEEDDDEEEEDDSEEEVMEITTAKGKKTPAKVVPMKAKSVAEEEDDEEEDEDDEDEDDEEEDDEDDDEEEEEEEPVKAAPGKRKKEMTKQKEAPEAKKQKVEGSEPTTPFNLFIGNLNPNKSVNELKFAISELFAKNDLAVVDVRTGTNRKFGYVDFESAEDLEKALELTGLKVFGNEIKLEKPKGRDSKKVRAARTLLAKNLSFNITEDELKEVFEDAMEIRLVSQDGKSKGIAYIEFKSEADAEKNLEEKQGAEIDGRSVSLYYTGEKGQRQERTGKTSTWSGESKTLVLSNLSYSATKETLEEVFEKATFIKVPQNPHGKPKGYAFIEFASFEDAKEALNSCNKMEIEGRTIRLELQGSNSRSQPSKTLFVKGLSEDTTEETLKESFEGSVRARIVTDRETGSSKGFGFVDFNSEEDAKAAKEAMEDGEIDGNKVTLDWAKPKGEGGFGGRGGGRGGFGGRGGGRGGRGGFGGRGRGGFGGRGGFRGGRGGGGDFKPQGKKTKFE

Like-named read-outs stand apart in the source and are kept apart here. These are yes or no findings as the source states them, for the method shown. In cells and extracts the contact can be indirect. These calls come from enrichment with a bait or labelling near it, and not all partners need be listed. For some of these results: No binding means not detected with the bait.

Holding throughout (assay): affinity purification with mass spectrometry; anti-Sgcg cross-linked to Protein A Dynabeads; RIPA1 extract (1% IGEPAL CA-630, 0.5% deoxycholate, 0.1% SDS) of the cytoskeleton-associated fraction of mouse gastrocnemius muscle (WT, Svil-/-); controls Sgcg-/- muscle and rabbit IgG; 2 h at 4 °C; LC-MS/MS, triplicates
In test [1] the target is T1, γ-sarcoglycan (Sgcg), endogenous in mouse muscle (mouse (endogenous in gastrocnemius muscle)) (UniProt P82348).
T1 sequence: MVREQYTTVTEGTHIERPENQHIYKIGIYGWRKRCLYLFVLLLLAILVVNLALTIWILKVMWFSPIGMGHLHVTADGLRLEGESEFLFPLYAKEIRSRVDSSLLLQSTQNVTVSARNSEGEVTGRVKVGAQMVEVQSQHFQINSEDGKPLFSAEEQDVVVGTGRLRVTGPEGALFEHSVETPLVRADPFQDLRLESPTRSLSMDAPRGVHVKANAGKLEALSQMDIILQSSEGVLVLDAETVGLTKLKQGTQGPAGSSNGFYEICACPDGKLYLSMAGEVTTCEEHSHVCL

In test [2] the target is T1, γ-sarcoglycan (Sgcg), endogenous in mouse muscle (mouse (endogenous in gastrocnemius muscle)). The source holds these as a separate data set.
In test [3] the target is T2, γ-sarcoglycan (Sgcg), endogenous in mouse muscle (mouse (endogenous in gastrocnemius muscle)), P82348.
T2 chain: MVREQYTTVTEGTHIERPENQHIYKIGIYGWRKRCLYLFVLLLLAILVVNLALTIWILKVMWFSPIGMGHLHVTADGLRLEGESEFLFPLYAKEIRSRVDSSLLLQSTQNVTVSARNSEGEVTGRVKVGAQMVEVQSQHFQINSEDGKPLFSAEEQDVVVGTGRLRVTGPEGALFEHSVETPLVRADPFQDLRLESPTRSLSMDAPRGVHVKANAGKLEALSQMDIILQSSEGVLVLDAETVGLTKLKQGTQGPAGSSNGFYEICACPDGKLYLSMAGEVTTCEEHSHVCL
The following applies: remark: other sources report otherwise.

In the case of TACC2 (from UniProt Q9JJG0 1-1149), the binding result in test [1] is given as “binds”.

For Mapt (from UniProt P10637 1-733), the binding result in test [1] is reported as “binds”.

As to Nucleolin (from UniProt P09405 1-707), in test [1], the binding result is “binds”.

Turning to eIF4G, in test [1], the binding result is reported as “binds”.

As for Ep215, the binding entry in test [1] is given as “binds”.

B1: Na+-K+-2Cl- cotransporter NKCC1, endogenous in mouse muscle (protein, UniProt P55012 1-1205)
chain: MEPGPARPRLAPAARPGWGRAAGCRRRGGPARHGRASGQEDATTAGRQAGGGVRGEGTPAAGDGLGRPLGPTPSQSRFQVDPVSENAGRAAAAAAAAAAAAAAAGAAGKETPAAGKAGGESGVAKGSEEAKGRFRVNFVDPAASSSADDSLSDAAGVGGDGPNVSFQNGGDTVLSEGSSLHSGGGSGHHQQYYYDTHTNTYYLRTFGHNTMDAVPRIDHYRHTAAQLGEKLLRPSLAELHDELEKEPFEDGFANGEESTPTRDAVVAYTAESKGVVKFGWIKGVLVRCMLNIWGVMLFIRLSWIVGQAGIGLSVVVIAMATVVTTITGLSTSAIATNGFVRGGGAYYLISRSLGPEFGGAIGLIFAFANAVAVAMYVVGFAETVVELLKEHSILMIDEINDIRIIGAITVVILLGISVAGMEWEAKAQIVLLVILLLAIADFVIGTFISLESKKPKGFFGYKSEIFNENFGPDFREEETFFSVFAIFFPAATGILAGANISGDLADPQSAIPKGTLLAILITTVVYIGIAVSVGSCVVRDATGNVNDTITTELTNCTSAACKLNFDFSYCESNTCSYGLMNNFQVMSMVSGFAPLISAGIFSATLSSALASLVSAPKIFQALCKDNIYPAFQMFAKGYGKNNEPLRGYILTFLIALGFILIAELNVIAPIISNFFLASYALINFSVFHASLAKSPGWRPAFKYYNMWISLIGAILCCIVMFVINWWAALLTYVIVLGLYIYVTYKKPDVNWGSSTQALTYLSALQHSIRLSGVEDHVKNFRPQCLVMTGSPNSRPALLHLVHDFTKNVGLMICGHVHMGPRRQAMKEMSIDQARYQRWLIKNKMKAFYAPVHADDLREGAQYLMQAAGLGRMKPNTLVLGFKKDWLQADMRDVDMYINLFHDAFDIQFGVVVIRLKEGLDISHLQGQEELLSSQEKSPGTKDVVVNVDYSKKSDQDTCKSSGEKSITQKDEEEDGKTPTQPLLKKESKGPIVPLNVADQKLLEASTQFQKKQGKNTIDVWWLFDDGGLTLLIPYLLTTKKKWKDCKIRVFIGGKINRIDHDRRAMATLLSKFRIDFSDIMVLGDINTKPKKENIIAFDDMIEPYRLHEDDKEQDIADKMKEDEPWRITDNELELYKTKTYRQIRLNELLKEHSSTANIIVMSLPVARKGAVSSALYMAWLEALSKDLPPVLLVRGNHQSVLTFYS
Turning to B1, the binding result in test [2] is “binds”.

B2: Myotilin (protein, UniProt Q9JIF9 1-496)
chain: MFNYERPKHFIQPQNPCGSRLQPPGPEVSGFPSQTKQSSIVIQPRQCTEQRFSASSTVSSHITVSSSAYPAPQQLAGPNPGQKVTATYNQSPASFLSSILPSQPDYCNSKIPSTVDSNYQQSSVNQPVNAMSSQAANARPTPKTPDHEIQGSKEALIQDLERKLKCKDTLLHNGNQRLTYEEKMARRLLGPQNAAAVFQAQNSDVQDSPQHNPEQARLHVPTSQVRSRSSSRAEANDQDAIQEKFYPPRFIQVPENMSIEEGRFCRMDFKVSGLPAPDVSWYLNGRPVQSDELHKMIVSEKGFHSLIFEVVRASDAGPYACVARNRAGEATFTVQLDVLAKEHKRAPMFIFKPQSKKVFEGETVKLECQISAIPPPKLFWKRNNEMVQFNTDRISLYHDNAGRVTLLIKDVNKKDAGWYTVSAVNEAGVTTCNTRLDVTARPIQTLPAPKQLRVRPTFSKYLALNGRGLDVKQAFNPEGEFQRLAAQSGLYESEEL
For the molecule B2, the binding entry in test [2] was “binds”.

B3: α-sarcoglycan (Sgca), P82350 24-387 (protein)
chain: QQTTLHLLVGRVFVHPLEHATFLRLPEHVAVPPTVRLTYHAHLQGHPDLPRWLHYTQRSPYNPGFLYGSPTPEDRGYQVIEVTAYNRDSFDTTRQRLLLLIGDPEGPRLPYQAEFLVRSHDVEEVLPTTPANRFLTALGGLWEPGELQLLNITSALDRGGRVPLPIEGRKEGVYIKVGSATPFSTCLKMVASPDSYARCAQGQPPLLSCYDTLAPHFRVDWCNVSLVDKSVPEPLDEVPTPGDGILEHDPFFCPPTEATDRDFLTDALVTLLVPLLVALLLTLLLAYIMCFRREGRLKRDMATSDIQMFHHCSIHGNTEELRQMAASREVPRPLSTLPMFNVRTGERLPPRVDSAQMPLILDQH
As for B3, the binding entry in test [3] is listed as “binds”.

B4: β-dystroglycan, Q62165 652-893 (protein)
chain: SIVVEWTNNTLPLEPCPKEQIIGLSRRIADENGKPRPAFSNALEPDFKALSIAVTGSGSCRHLQFIPVAPPSPGSSAAPATEVPDRDPEKSSEDDVYLHTVIPAVVVAAILLIAGIIAMICYRKKRKGKLTLEDQATFIKKGVPIIFADELDDSKPPPSSSMPLILQEEKAPLPPPEYPNQSMPETTPLNQDTVGEYTPLRDEDPNAPPYQPPPPFTAPMEGKGSRPKNMTPYRSPPPYVPP
As to B4, the binding result in test [3] is “no binding”.

B5: Tensin 2 (protein, UniProt Q8CGB6 1-1400)
chain: MKSSGPVERLLRALGRRDSSRATSRPRKAEPHSFREKVFRKKTPVCAVCKVTIDGTGVSCRVCKVATHRKCEAKVTSSCQALPPAELRRSTAPVRRIEHLGSTKSLNHSKQRSTLPRSFSLDPLMERRWDLDLTYVTERILAAAFPARPDEQRHRGHLRELAHVLQSKHRDKYLLFNLSEKRHDLTRLNPKVQDFGWPELHAPPLDKLCSICKAMETWLSADPQHVVVLYCKGSKGKLGVIVSAYMHYSKISAGADQALATLTMRKFCEDKVATELQPSQRRYVSYFSGLLSGSIRMNSSPLFLHYVFVPVLPAFEPNTGFQPFLKIYQSMQLVYTSGVYRIAGPGPQQLCISLEPALLLKGDVMVTCYHKGGQGTDRTLVFRVQFHTCTIHGSRLTFPKDQLDEAWADERFPFQASVEFVFSSSPEKVKGNTPRNDPSVSVDYNTTEPAVRWDSYENFNQHHEDSVDGALAHTRGPLDGSPYAQVQRVPRQTPPAPSPELPPPPMLSVSSDSGHSSTLTTEHTAESPGRPPPTAAERQELDRLLGGCGVASAGRGAGRETAILDDEEQPSVGGGLHLGMYSGHRPGLSRRCSCRQGFREPCGVPNGSYYRPEGTLERRRPPYGGYEGHPQGYAEASVEKRRLCRSLSEGPYPYAPELGKPANGDFGYRPAGYREVVILEDPGVPALCSCPACEEKLALPTAALYGLRLEREAAEGWSSEVGKPLLHPVRPGHPLPLLVPACGHHHAPMPDYGCLKPPKVGEEGHEGCSYAVCSEGRYGHSGYPALVTYGYGGAVPSYCPAYGRAPHSCGSPSEGRGYPSPGAHSPRAGSVSPGSPPYLQPRKLGYEISAEDGRDKYPLSGHLASTGPLASTESPEPSWRDGSSGHSTLPRSPRDPQCSASSELSGPSTPLHTSSPVQGKESNRRQDTTRSPSLAPTQRLSPGEALPSVVQGVAEKTPELLTSSRPEQLDPSPFSQTSAPGSPNGWPQERSPGGHTNSASPRSPVPTTLPGLRHAPWQGPRGTSDSPDGSPLTPVPTQMPWLVGSPEPPQSSPTPAFPLATSYDANGPIQPPLPEKRHLPGSGQQPSPPARSTNQHVTFASPLPDVTQPPEHPLQENQSNVKFVQDTSKFWYKPHLSRDQAIALLKDKDPGAFLIRDSHSFQGAYGLALKVATPPPSAQPWKGDPSEQLVRHFLIETGPKGVKIKGCPTEPYFGSLSALVSQHSISPISLPCCLRIPSKDPLEETPEAPVPTNMSTAADLLRQGAACSVLYLTSVETESLTGPQAVAKASSAALSCSPVPVPAIVHFKVSAQGITLTDNQRKLFFRRHYPVNSITFSSTDPQDRRWTNPDGATSKIFGFVAKKPGSPWENVCHLFAELDPDQPASAIVTFITKVLLGQRK
Take B5: the binding entry in test [2] was “binds”.
